Results on 1 compound are retold here after PMC9670593 (Journal of Molecular Liquids, 2022).

For the assay, the system named is Escherichia coli (ATCC: 25922). Nature of the assay: Antibacterial minimal inhibitory concentration. The format is cell-based. The settings on record: 24 h, read-out: Minimum Inhibition concentration (MIC). The method in brief: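 Test compounds were stocked at 20 mg/mL in DMSO. Ampicillin was run as standard drug and DMSO as negative control. MIC reported in μM.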

Structures are written as SMILES. In brackets after ≈: the same amount, converted by molar mass.

Turning to `CC1(C)S[C@@H]2[C@H](NC(=O)[C@H](N)c3ccccc3)C(=O)N2[C@H]1C(=O)O` [Ampicillin, reference compound], the MIC was 3.5 µM (≈ 1.22 µg/mL).
